Results are given in words; binding and its absence hold for the method and conditions named. Tags and fused reporters may be left off the sequences shown.
Target: T1, wild-type TagRFP-T-CENP-C (Drosophila melanogaster) (UniProt Q9VHP9)
T1 sequence: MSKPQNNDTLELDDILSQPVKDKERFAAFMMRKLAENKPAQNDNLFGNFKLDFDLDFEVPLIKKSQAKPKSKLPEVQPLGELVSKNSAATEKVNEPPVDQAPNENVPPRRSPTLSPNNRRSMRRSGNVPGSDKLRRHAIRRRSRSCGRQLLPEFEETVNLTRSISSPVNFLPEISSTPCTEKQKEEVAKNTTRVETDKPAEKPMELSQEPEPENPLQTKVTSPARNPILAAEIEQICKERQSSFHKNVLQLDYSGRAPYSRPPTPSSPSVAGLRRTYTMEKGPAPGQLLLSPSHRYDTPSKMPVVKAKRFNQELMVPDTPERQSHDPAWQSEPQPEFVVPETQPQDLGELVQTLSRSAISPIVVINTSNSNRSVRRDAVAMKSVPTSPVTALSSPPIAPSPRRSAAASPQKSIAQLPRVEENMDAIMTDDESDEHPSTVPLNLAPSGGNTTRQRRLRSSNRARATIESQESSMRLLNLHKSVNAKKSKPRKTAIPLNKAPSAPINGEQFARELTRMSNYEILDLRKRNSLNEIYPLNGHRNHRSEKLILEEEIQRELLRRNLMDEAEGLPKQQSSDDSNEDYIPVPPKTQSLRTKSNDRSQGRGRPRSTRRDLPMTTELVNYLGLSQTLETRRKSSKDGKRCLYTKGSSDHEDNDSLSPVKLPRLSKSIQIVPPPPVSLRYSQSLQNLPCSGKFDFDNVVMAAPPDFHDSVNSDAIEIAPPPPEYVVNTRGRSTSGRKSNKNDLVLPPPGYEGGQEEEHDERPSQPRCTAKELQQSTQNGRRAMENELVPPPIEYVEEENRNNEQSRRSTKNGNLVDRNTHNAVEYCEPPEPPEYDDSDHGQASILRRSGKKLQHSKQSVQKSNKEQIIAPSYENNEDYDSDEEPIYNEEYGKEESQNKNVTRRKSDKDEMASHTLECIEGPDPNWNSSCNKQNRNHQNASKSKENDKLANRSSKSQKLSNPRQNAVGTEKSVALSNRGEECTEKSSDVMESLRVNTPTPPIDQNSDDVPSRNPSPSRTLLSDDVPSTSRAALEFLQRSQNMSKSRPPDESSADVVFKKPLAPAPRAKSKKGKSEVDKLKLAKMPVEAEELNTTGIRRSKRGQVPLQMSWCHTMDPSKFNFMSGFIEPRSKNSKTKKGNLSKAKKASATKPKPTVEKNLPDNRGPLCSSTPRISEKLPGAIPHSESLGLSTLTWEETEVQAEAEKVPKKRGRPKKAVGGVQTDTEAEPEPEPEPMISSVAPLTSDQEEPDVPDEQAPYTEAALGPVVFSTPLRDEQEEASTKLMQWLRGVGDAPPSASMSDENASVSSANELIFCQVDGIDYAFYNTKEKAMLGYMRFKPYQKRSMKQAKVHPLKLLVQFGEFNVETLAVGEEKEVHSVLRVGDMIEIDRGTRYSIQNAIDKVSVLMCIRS
Assay: fluorescence imaging of recruitment to kinetochores in cells; VH-EGFP in S2 cells expressing TagRFP-T-CENP-C-TR or wild-type TagRFP-T-CENP-C; localisation to kinetochores scored

B1: vinculin head domain (aa 1-258) fused to EGFP (domain or fragment, UniProt P12003 1-258)
chain: MPVFHTRTIESILEPVAQQISHLVIMHEEGEVDGKAIPDLTAPVSAVQAAVSNLVRVGKETVQTTEDQILKRDMPPAFIKVENACTKLVRAAQMLQADPYSVPARDYLIDGSRGILSGTSDLLLTFDEAEVRKIIRVCKGILEYLTVAEVVETMEDLVTYTKNLGPGMTKMAKMIDERQQELTHQEHRVMLVNSMNTVKELLPVLISAMKIFVTTKNTKSQGIEEALKNRNFTVEKMSAEINEIIRVLQLTSWDEDAW
With B1 the binding was “no binding”.

From paper PMC5080440
